Results as given in patent US20220168310A1, “INHIBITION OF ADENOVIRUS WITH FILOCICLOVIR” (Microbiotix, Inc., priority 2019, published 2022).
At least one read-out could not be matched to a standard name with certainty.

Test system: Adenovirus 5 (AdV5)
Assay: Cytopathic effects (CPE) reduction assay, AdV5 in HFF cells, 384-well
Assay type: cell-based, human adenovirus
Details: CC50/EC50, AdV5

Compound: Nc1nc(O)c2ncn(COC(CO)CO)c2n1 [GCV, ganciclovir]
- SI: 1.5
- SI (listed as ganciclovir): ≥ 1.5

Compound: Nc1ccn(C[C@@H](CO)OCP(=O)(O)O)c(=O)n1 [CDV, cidofovir, reference compound]
- SI: 24.3
- SI (listed as cidofovir): 24
